Measured values reported in CN116199778A.
These are yes or no findings as the source states them, for the method shown. Some results given as binding are weak or reduced against the parent protein; the word gives no strength.

Amino acid sequences for entries named in this document (tags omitted). A change or cut given only in a name is not applied to a line headed by its entry. Chains listed by the source or under a name are the forms on record and can include a tag or linker. Residues count along the entry.
UniProt Q07011: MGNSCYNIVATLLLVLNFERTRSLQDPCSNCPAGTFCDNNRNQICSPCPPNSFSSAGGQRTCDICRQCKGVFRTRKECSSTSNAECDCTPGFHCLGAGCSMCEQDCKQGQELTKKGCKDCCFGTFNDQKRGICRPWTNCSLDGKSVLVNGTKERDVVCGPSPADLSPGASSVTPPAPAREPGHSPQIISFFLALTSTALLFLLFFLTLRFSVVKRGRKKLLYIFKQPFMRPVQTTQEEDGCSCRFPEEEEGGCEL
4-1BB on the surface of Jurkat NFKB 4-1BB cells: residues 24-255 of Q07011
含有His标签的人4-1BB (human 4-1BB extracellular region with His tag): residues 24-186 of Q07011

Columns and labels:
[1] = molecular target: 4-1BB on the surface of Jurkat NFKB 4-1BB cells (UniProt Q07011); test: flow cytometry on Jurkat NFKB 4-1BB cells
[2] = molecular target: 含有His标签的人4-1BB (human 4-1BB extracellular region with His tag) (human) (UniProt Q07011); test: ELISA, His-tagged human 4-1BB coated

B1: JS011-phage6 (antibody, V domains shown)
VH: QVQLVQSGAEVKKPGASVKVSCKASGYTFTGQYIHWARQAPGQGLEWMGWINPNSGGTNYAQKFQGRVTMTRDTSISTAYMELSRLRSDDTAVYYCARDKAGADYWGQGTLVTVSS
VL: ELALTQPPSVSGSPGQSITISCTGTSSDIGGYDYVSWYQQYPGKAPKLMISGVSNRPSGVSNRFSGSKSGNTASLIISGLQAEDEGDYYCSSYTSRSTRWVFGGGTKLTVL
binding [1]: binds
binding [2]: binds
